# Results: PubChem BioAssay AID445 (National Center for Advancing Translational Sciences (NCATS), 2006)
# The other results are listed elsewhere or left out. These are further read-outs of the screen, such as a control signal, another cell line or another target. No call is given for them. The list favours compounds with an active or inconclusive main result. The note in brackets gives the kind of curve behind each potency; many fits are weak.
# Assay: IkB Signaling
# Conditions: ABC-DLBCL IkBa-CBG/CBR dual luciferase ratio (green luciferase fused to IkBa over red control in OCI-Ly3 lymphoma cells), 4 h
# In short: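 Luminescence ratio of IκBα-fused green versus native red beetle luciferase in OCI-Ly3 cells, 4 h post-doxycycline with compound; red signal alone, scaled from basal (0%) to zero light (-100%), flagged nonspecific or cytotoxic effects.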
# [1] = measured here: control luc red channel unless noted
# [2] = measured here: IkB-luc green channel
# [3] = measured here: control luc red channel
compound,measurement,setting,value
O=C(Nc1ccccc1C(=O)OCC(=O)N1CCc2ccccc2C1)c1ccco1,AC50,[1],"25.1 µM [falling, partial curve]"
CCOc1cccc2sc(NC(=O)CS(=O)(=O)c3ccc(C)cc3)nc12,AC50,[1],"0.794 µM [falling, full curve, poor fit]"
CCN(Cc1ccccc1)S(=O)(=O)c1ccc(F)c(C(=O)Nc2cc(C(F)(F)F)ccc2Cl)c1,AC50,[1],"12.6 µM [falling, partial curve]"
COc1ccc(-n2c(=O)c3sc4ccccc4c3n(CC(=O)NC3CCCCC3)c2=O)cc1,AC50,[1],"0.316 µM [rising, full curve]"
COC(=O)CSc1ccc2c(N)c(C(=O)OC)sc2c1,AC50,[1],"10 µM [falling, partial curve]"
CCS(=O)(=O)c1c(Nc2cc(C)ccc2C)sc(C(=O)c2ccccc2)c1N,AC50,[1],"39.8 µM [falling, single point]"
COc1cccc(-c2nc(S(=O)(=O)c3ccccc3)c(N3CCC(C)CC3)o2)c1,AC50,[1],"25.1 µM [falling, partial curve]"
CC1=C(C(=O)Nc2ccccc2)C(c2cc(Br)ccc2F)n2ncc(C(=O)Nc3ccccc3)c2N1 (stereo not given),AC50,[1],"5.01 µM [falling, partial curve]"
Cc1ccc(C(=O)n2nc(C)c(S(=O)(=O)N3CCOCC3)c2C)cc1C,AC50,[1],"39.8 µM [falling, single point]"
COc1ccc(Cn2c(CO)cnc2SCc2cccc(C)c2)cc1,AC50,[1],"6.31 µM [falling, partial curve]"
COc1ccccc1N1CCN(C(=O)CCS(=O)(=O)c2cc(Br)cc3c2N(C(C)=O)CC3)CC1,AC50,[1],"15.8 µM [falling, partial curve]"
O=C(COc1ccc(Cl)cc1)NCC(c1ccco1)S(=O)(=O)c1ccc(Cl)cc1 (stereo not given),AC50,[1],"20 µM [falling, partial curve]"
COc1ccc(CNC(=O)c2cc3c(=O)n(C)c4ccccc4c3n2C)c(OC)c1,AC50,[1],"25.1 µM [falling, single point]"
Cc1cc(C)c2oc(-c3ccc(C)c(NC(=O)/C=C/c4ccco4)c3)nc2c1,AC50,[2],"31.6 µM [rising, single point]"
same,AC50,[3],"20 µM [rising, partial curve]"
Nc1nc(C2CC2)c(Sc2sc(N)nc2C2CC2)s1,AC50,[1],"12.6 µM [falling, partial curve]"
O=C(c1ccc(Cl)cc1)C1CCN(C(=O)NC2CCCCC2)CC1,AC50,[1],"31.6 µM [falling, partial curve, poor fit]"
CCCc1cc(=O)oc2c(C)c3c(cc12)CN(CCc1ccc(Cl)cc1)CO3,AC50,[1],"25.1 µM [falling, single point]"
CC1CCC(NC(=O)CN2C(=O)C3CCCN3c3ncc(Cl)cc32)CC1 (stereo not given),AC50,[1],"3.16 µM [falling, full curve]"
Clc1cccc(-c2nc3nc4ccccc4nc3n2Cc2ccco2)c1,AC50,[1],"1.26 µM [falling, partial curve]"
N[C@@H]1CCN(O)C1=O,AC50,[1],"10 µM [rising, full curve]"
Cc1ccc2c(c1)Cc1c(nc(-c3ccc(F)cc3)nc1SCC(=O)N1CCCCC1)O2,AC50,[1],"39.8 µM [falling, single point]"
COc1cc(C(=O)Oc2c(CN3CCOCC3)cc(Cl)c3cccnc23)cc(OC)c1OC,AC50,[1],"20 µM [rising, partial curve] [measured here: IkB-luc green channel]"
CCCN1CCN(CCCNC(=O)C2CCCN(c3nc4ccc(OCC)cc4s3)C2)CC1 (stereo not given),AC50,[1],"15.8 µM [falling, partial curve]"
Cc1ccc(Nc2c(-c3cccnc3)nc3ccc(Cl)cn23)cc1,AC50,[1],"31.6 µM [falling, partial curve]"
Nc1ncnc2c1nc(Br)n2[C@@H]1O[C@H]2COP(=O)(O)O[C@@H]2[C@H]1O,AC50,[1],"794 nM [rising, full curve] [measured here: IkB-luc green channel]"
O=C(Nc1ccc(S(=O)(=O)N2CCCC2)cc1)c1ccc(CN2CCOCC2)cc1,AC50,[1],"10 µM [falling, partial curve]"
CCc1ccccc1Nc1ncnc2c1cnn2-c1ccc(C)cc1C,AC50,[1],"0.794 µM [falling, full curve, poor fit]"
CC(C)COc1ccc(C(=O)Nc2nnc(S(=O)(=O)N(C)Cc3ccco3)s2)cc1,AC50,[1],"1.26 µM [falling, partial curve]"
COc1ccc(C(=O)OCC(=O)c2ccc(C)c(S(=O)(=O)N3CCOCC3)c2)cc1OC,AC50,[1],"7.94 µM [falling, partial curve]"
CCc1cccc(NC(c2ccccc2)c2nnc(-c3ccccc3F)o2)c1 (stereo not given),AC50,[1],"39.8 µM [falling, single point]"
Fc1ccc2[nH]c3c(N4CCN(c5ccccc5)CC4)ncnc3c2c1,AC50,[1],"3.98 µM [falling, full curve]"
CC(=O)N1CCC(C(=O)Nc2nc(-c3ccccc3)ns2)CC1,AC50,[1],"39.8 µM [falling, single point]"
CN(Cc1cc(=O)[nH]c2ccccc12)C(=O)c1ccccc1,AC50,[1],"0.316 µM [falling, full curve]"
Cc1ccc(-n2ncc(C(=O)NCCN3CCN(C)CC3)c2C2CCN(C(=O)OC(C)(C)C)CC2)cc1,AC50,[1],"39.8 µM [falling, single point]"
Cc1nc(C)c(-c2ccc(SCC(=O)Nc3cccc(C)c3C)nn2)s1,AC50,[1],"39.8 µM [falling, single point]"
Cc1ccccc1C(=O)NNc1ncnc2c1cnn2-c1cccc(Cl)c1,AC50,[1],"20 µM [falling, partial curve]"
CCOc1ccc(S(=O)(=O)Nc2cc(Cl)ccc2O)cc1,AC50,[1],"12.6 µM [falling, partial curve]"
CCCc1ccc(NC(=O)C2CCCN(c3cnccn3)C2)cc1 (stereo not given),AC50,[1],"31.6 µM [falling, single point]"
CCOc1ccc(Nc2nc(C)c(NC(=O)c3cccc(F)c3)c(Nc3ccc(OCC)cc3)n2)cc1,AC50,[1],"12.6 µM [falling, partial curve]"
COc1cccc(-c2oc3ccc(C)cc3c(=O)c2O)c1,AC50,[1],"31.6 µM [falling, single point]"
CCC1Oc2ccc(C)cc2N(CC(=O)N2CCN(c3ccccc3OC)CC2)C1=O (stereo not given),AC50,[1],"39.8 µM [falling, single point]"
O=S(=O)(c1ccc(-c2csc(=Nc3ccc(F)cc3)n2CCCCCCO)cc1)N1CCCC1,AC50,[1],"3.16 µM [falling, full curve]"
Cc1cccc(OCC(=O)Nc2ccc3c(c2)nc(CN2CCCCC2)n3C)c1,AC50,[1],"12.6 µM [falling, single point]"
Cc1ccc(-n2ncc3c(N4CCN(Cc5ccccc5)CC4)ncnc32)cc1Cl,AC50,[1],"20 µM [falling, partial curve]"
CCc1cc(=O)[nH]c(SCc2nc(-c3cccc(Cl)c3)no2)n1,AC50,[1],"20 µM [falling, partial curve]"
CCOCCCn1c(SCC(=O)Nc2ccc(CC)cc2)nc2ccccc2c1=O,AC50,[1],"25.1 µM [falling, single point]"
CCn1c(=O)c(C(=O)Nc2nc3ccccc3[nH]2)c(O)c2ccccc21,AC50,[1],"0.126 µM [falling, full curve]"
Cc1ccccc1Cn1c(=O)c2c(nc3n2CCCN3Cc2ccccc2)n(C)c1=O,AC50,[1],"10 µM [falling, partial curve]"
C=CCn1c(=O)c(C(=O)Nc2ccccc2O)c(O)c2ccccc21,AC50,[1],"0.251 µM [falling, full curve]"
CCOC(=O)C1CCN(C(=O)c2ccc3c(c2)sc2nc(-c4ccc(OC)cc4)cn23)CC1,AC50,[1],"12.6 µM [falling, partial curve]"
C[N+](C)(C)CCC(=O)c1cccc2ccccc12,AC50,[2],"7.94 µM [falling, full curve, poor fit]"
same,AC50,[3],"3.98 µM [falling, full curve]"
CCCCNC(=O)CSc1nc2n[nH]c(C)c2c(=N)n1-c1cccc(C)c1,AC50,[1],"25.1 µM [falling, single point]"
Cc1cnc(NC(=O)COc2ccccc2)s1,AC50,[1],"20 µM [falling, single point]"
Cc1nc2ccc(S(=O)(=O)NC(CC(C)C)C(=O)NCc3ccc(Cl)cc3)cc2s1 (stereo not given),AC50,[1],"20 µM [falling, partial curve]"
C=CCc1cccc2cc(-c3nc4ccc(C(=O)O)cc4[nH]3)c(=O)oc12,AC50,[1],"0.2 µM [falling, full curve]"
CCOC(=O)c1cc(S(=O)(=O)Nc2c(C)cc(C)cc2C)[nH]n1,AC50,[1],"10 µM [falling, partial curve]"
Cc1ccc2nc(-c3ccc(NC(=O)COc4ccccc4C(C)(C)C)cc3)sc2c1,AC50,[1],"3.98 µM [rising, single point]"
COc1ccc2cc(CN(C(=O)Nc3ccccc3OC)C3CCCC3)c(=O)[nH]c2c1,AC50,[1],"6.31 µM [falling, partial curve]"
CC(=O)NC(C)c1nc2ccccc2n1Cc1ccccc1Cl (stereo not given),AC50,[1],"15.8 µM [falling, partial curve]"
CCOC(=O)N1CCN(c2ncc3c(n2)CC(c2ccc(Cl)cc2)CC3=O)CC1 (stereo not given),AC50,[1],"20 µM [falling, single point]"
Cc1ccc(C)c(NC(=O)C2CCCN2S(=O)(=O)c2ccc3c(c2)n(C)c(=O)c(=O)n3C)c1 (stereo not given),AC50,[1],"25.1 µM [falling, partial curve]"
Cc1ccc(-c2noc(CN(C(=O)CCCCCN3C(=O)c4ccccc4C3=O)C(C)C)n2)cc1,AC50,[1],"15.8 µM [falling, partial curve]"
CCOC(=O)CCCCN(Cc1ccccc1F)S(=O)(=O)c1ccc(F)c(C(=O)Nc2cc(Cl)cc(Cl)c2)c1,AC50,[1],"39.8 µM [falling, single point]"

# Quoted at random: 4 entries already listed, in no set order.
compound,measurement,setting,value
CCCCNC(=O)CSc1nc2n[nH]c(C)c2c(=N)n1-c1cccc(C)c1,AC50,[1],"25.1 µM [falling, single point]"
COc1ccc(CNC(=O)c2cc3c(=O)n(C)c4ccccc4c3n2C)c(OC)c1,AC50,[1],"25.1 µM [falling, single point]"
Cc1ccc2c(c1)Cc1c(nc(-c3ccc(F)cc3)nc1SCC(=O)N1CCCCC1)O2,AC50,[1],"39.8 µM [falling, single point]"
CCOCCCn1c(SCC(=O)Nc2ccc(CC)cc2)nc2ccccc2c1=O,AC50,[1],"25.1 µM [falling, single point]"
